Here are results for 39 molecules from PubChem BioAssay AID2810 (NMMLSC, 2010).

The other results are listed elsewhere or left out. Further columns of the screen follow, without active or inactive calls.

This experiment is described as follows: modulators of CD8 T cell-vesicle binding, confirmation, cherry-picked primary hits, two concentrations (AID 2810).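 For all read-outs here: lower values mean blocking of vesicle binding.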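 For percent response (vesicle binding): ratio of mean FL2 vesicle stain of CD8+ cells to that row's control.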 As to conditions: 2C CD8+ T cell-vesicle binding, flow cytometry; for double positive events: CD8+/vesicle+ events.
[1] abbreviates: at 15.4 µM, stronger effect = lower value.

For the molecule `CCN(Cc1ccccc1)C(=O)CSc1nc(C)cc2c1C(=O)OC2`, the double positive events came out at 11.7% (at 7.7 µM) and 25.9% under setting [1]. For the setting “at 7.7 µM”, this molecule showed a percent response (vesicle binding) of 330%.

As for `COc1ccc2cc(C(=O)COC(=O)COc3ccc4c(C)cc(=O)oc4c3)ccc2c1`, the double positive events worked out at 10.1% (at 7.7 µM) and 21.2% under setting [1]. Moreover, the percent response (vesicle binding) (at 7.7 µM) turned out to be 109%.

As to `O=C(NC1CCCCC1)C1CCCN1C(=O)NCc1ccccc1` (configuration not stated), the double positive events is 19.1% (at 7.7 µM) and 7.2% under setting [1]. For the setting “at 7.7 µM”, this molecule yielded a percent response (vesicle binding) of 152%.

On to `CCOC(=O)c1c(C)n(C)c2ccc(OCC(O)CNC(CC)CO)cc12` (configuration not stated), for which, under “at 7.7 µM”, the double positive events was found to be 12.6% and the percent response (vesicle binding) amounted to 175%. The double positive events under setting [1] amounted to 19.1%.

With `O=S(=O)(N/N=C\c1ccc(-c2ccccc2Cl)o1)c1ccccc1`, the double positive events runs as follows: (at 7.7 µM) 18.7%; under setting [1], 11.1%. This molecule registered a percent response (vesicle binding) (at 7.7 µM) of 514%.

Regarding `CCOC(=O)/C=C1\SCC(=O)N1CC(=O)NC1CCCCC1`, the double positive events by setting is: (at 7.7 µM) 14.9%; under setting [1], 28.7%. Further, the percent response (vesicle binding) (at 7.7 µM) was 396%.

`Clc1ccc(COC(Cn2ccnc2)c2ccc(Cl)cc2Cl)c(Cl)c1` (configuration not stated): where the note is “at 7.7 µM”, the double positive events is 8.8% and the percent response (vesicle binding) was determined as 358%. The molecule further came in with a double positive events under setting [1] of 15.8%.

Consider `COC(=O)C1CCCCN1C(=O)c1cc(COc2cccc3cnccc23)on1` (configuration not stated), for which, for the setting “at 7.7 µM”, the double positive events was 16.8% and the percent response (vesicle binding) was 210%. For the same molecule, the double positive events under setting [1] came out at 14.9%.

With `CCOc1ccc(S(=O)(=O)N2CCC(C(=O)OC(C)C(=O)NC3CCCCC3C)CC2)cc1` (configuration not stated), under “at 7.7 µM”, the double positive events was 17.2% and the percent response (vesicle binding) was 87%. For the same molecule, under setting [1], the double positive events amounted to 12.3%.

As to `CCc1ccc(/C(C)=N/NC(=O)c2ccc(-n3cnnn3)cc2)cc1`, the double positive events by setting is: (at 7.7 µM) 11%; under setting [1], 10.6%. The molecule further gave a percent response (vesicle binding) (at 7.7 µM) of 547%.

As for `COc1ccc(C(=O)Nc2c3c(nn2C(C)(C)C)CS(=O)(=O)C3)cc1OC`, under “at 7.7 µM”, the double positive events amounted to 7.3% and the percent response (vesicle binding) came to 268%. Under setting [1], the double positive events is 7.7%.

Where the note is “at 7.7 µM”, `COC(=O)c1c(NC(=O)c2ccccc2)sc(Cc2ccccc2)c1C` yielded a double positive events of 10.6% and a percent response (vesicle binding) of 348%. Also, the double positive events under setting [1] is 28.6%.

With `O=c1cc(N2CCc3ccccc3C2)[nH]c(=O)n1-c1ccc(Br)cc1`, the double positive events by setting is: (at 7.7 µM) 25.9%; under setting [1], 11.3%. For the same molecule, the percent response (vesicle binding) (at 7.7 µM) was determined as 165%.

For the setting “at 7.7 µM”, `O=C(NCc1cccnc1)C(=O)NCC(c1ccco1)N1CCN(c2ccccc2F)CC1` (configuration not stated) came in with a double positive events of 25% and a percent response (vesicle binding) of 186%. Also, the double positive events under setting [1] is 19%.

In the case of `Cc1ccccc1C(=O)NCC(=O)NNC(=O)c1cccc(Cl)c1`, where the note is “at 7.7 µM”, the double positive events was 25.2% and the percent response (vesicle binding) came out at 294%. The double positive events under setting [1] came to 21.4%.

Where the note is “at 7.7 µM”, `COc1ccc2c(c1)-c1c(sn(-c3ccc(OC)c(OC)c3)c1=S)C(C)(C)N2` returned a double positive events of 14% and a percent response (vesicle binding) of 179%. Moreover, under setting [1], the double positive events amounted to 1.7%.

Where the note is “at 7.7 µM”, `COc1ccc(-n2c(=O)c(CCC(=O)N3CCC(C)CC3)nc3ccccc32)cc1` yielded a double positive events of 11.9% and a percent response (vesicle binding) of 127%. Moreover, under setting [1], the double positive events was found to be 11.7%.

Under “at 7.7 µM”, `O=C1CN(C(=O)COC(=O)c2ccc([N+](=O)[O-])o2)c2ccccc2N1` yielded a double positive events of 26.6% and a percent response (vesicle binding) of 231%. Under setting [1], this molecule gave a double positive events of 14.9%.

Turning to `Cc1ccc(S(=O)(=O)N(C(=O)c2ccncc2)c2ccc(OC(=O)c3ccncc3)c3ccccc23)cc1`, the double positive events reads like this: (at 7.7 µM) 25.8%; under setting [1], 47.5%. Besides, under “at 7.7 µM”, the percent response (vesicle binding) came to 207%.

Where the note is “at 7.7 µM”, `Cc1cc(=O)oc2cc(NC(=O)C3COc4ccccc4O3)ccc12` (configuration not stated) displayed a double positive events of 34.3% and a percent response (vesicle binding) of 255%. Under setting [1], this molecule gave a double positive events of 14.2%.

`CCn1c(SCC(=O)Nc2ccc(C(C)=O)cc2)nc2nc3c(cc2c1=O)CCCC3`: under “at 7.7 µM”, the double positive events came out at 12.3% and the percent response (vesicle binding) stood at 216%. This molecule yielded a double positive events under setting [1] of 13.1%.

Regarding `Cc1nn(C)c(C)c1CN(C)S(=O)(=O)c1ccc(F)cc1`, for the setting “at 7.7 µM”, the double positive events was determined as 23.5% and the percent response (vesicle binding) amounted to 218%. Under setting [1], this molecule displayed a double positive events of 4.7%.

For the molecule `CC1CCN(C(=O)CCC(=O)Nc2nnc(C(F)(F)F)s2)CC1`, for the setting “at 7.7 µM”, the double positive events was determined as 28.7% and the percent response (vesicle binding) came to 320%. The molecule also gave a double positive events under setting [1] of 8.4%.

In the case of `CC(=O)c1c(C)[nH]c(C(=O)OCC(=O)NCc2ccc(Cl)cc2)c1C`, the double positive events amounted to 15.9% (at 7.7 µM) and 14.5% under setting [1]. Further, under “at 7.7 µM”, the percent response (vesicle binding) came to 218%.

Consider `Cc1ccc2ccc3ccc(C)nc3c2n1`, for which, where the note is “at 7.7 µM”, the double positive events was 14.3% and the percent response (vesicle binding) is 374%. Under setting [1], this molecule registered a double positive events of 11.3%.

Where the note is “at 7.7 µM”, `CC(C)NC(=O)N(C)C[C@H]1Oc2ccc(NS(=O)(=O)c3ccccc3)cc2C(=O)N([C@H](C)CO)C[C@H]1C` showed a double positive events of 19.5% and a percent response (vesicle binding) of 102%. Under setting [1], the double positive events came out at 11.7%.

Where the note is “at 7.7 µM”, `COc1ccc(/C=C/C(=O)ONC2=NCCCCC2)cc1OC` had a double positive events of 16% and a percent response (vesicle binding) of 337%. Further, under setting [1], the double positive events is 29.1%.

Regarding `Cc1sc2ncnc(SCC(=O)Nc3ccc(CN4CCCC4)cc3)c2c1C`, the double positive events came to 8.9% (at 7.7 µM) and 13.1% under setting [1]. The same molecule gave a percent response (vesicle binding) (at 7.7 µM) of 122%.

Take `CCOC(=O)n1c(=O)oc2cc(S(=O)(=O)N3CCOCC3)ccc21`: the double positive events runs as follows: (at 7.7 µM) 9%; under setting [1], 21.7%. This molecule also returned a percent response (vesicle binding) (at 7.7 µM) of 258%.

For the setting “at 7.7 µM”, `C/C(O)=C/c1nc2ccccc2[nH]c1=O` showed a double positive events of 8.8% and a percent response (vesicle binding) of 132%. Under setting [1], this molecule showed a double positive events of 17.4%.

In turn, `O=S(=O)(Nc1nc2ccccc2nc1N1CCc2ccccc2C1)c1ccc(Cl)cc1` yielded a double positive events (at 7.7 µM) of 10.3% and a double positive events under setting [1] of 22%. Under “at 7.7 µM”, this molecule gave a percent response (vesicle binding) of 215%.

`C=CCSc1nnc2c(n1)[nH]c1c(C)cccc12`: where the note is “at 7.7 µM”, the double positive events was 11.4% and the percent response (vesicle binding) turned out to be 178%. Under setting [1], the double positive events came to 18.8%.

Consider `O=C(Nc1nc2c(s1)CCCC2)C1COc2ccccc2O1` (configuration not stated), for which, where the note is “at 7.7 µM”, the double positive events is 21.7% and the percent response (vesicle binding) came out at 423%. In addition, under setting [1], the double positive events came to 10.2%.

Under “at 7.7 µM”, `O=C(Cn1cc2c(n1)CCCC2)NCc1ccccn1` registered a double positive events of 16.3% and a percent response (vesicle binding) of 94.1%. Besides, the double positive events under setting [1] turned out to be 4.8%.

Consider `Cc1cc(NC(=S)NC(=O)C2CC2)ccc1Br`, for which, under “at 7.7 µM”, the double positive events is 10.1% and the percent response (vesicle binding) is 344%. The double positive events under setting [1] was 27.2%.

Consider `CCn1c(SCC(=O)Nc2ccc(OC)cc2)nc2nc3c(cc2c1=O)COC(C)(C)C3`, for which the double positive events is, setting by setting: (at 7.7 µM) 7.4%; under setting [1], 15.6%. Moreover, the percent response (vesicle binding) (at 7.7 µM) worked out at 294%.

`Cc1sc2ncnc(Sc3ccccc3C(=O)Nc3ccc(C#N)cc3)c2c1C`: for the setting “at 7.7 µM”, the double positive events was found to be 39.9% and the percent response (vesicle binding) is 396%. In addition, the double positive events under setting [1] stood at 27.6%.

Consider `COc1ccc(C(=O)Nc2c(N)nc(SCC(=O)NCC3CCCO3)[nH]c2=O)cc1` (configuration not stated), for which the double positive events runs as follows: (at 7.7 µM) 10.1%; under setting [1], 19.3%. Moreover, the percent response (vesicle binding) (at 7.7 µM) was 335%.

Under “at 7.7 µM”, `Cc1ccccc1C(=O)N1CCC(C(=O)Nc2ccc(C)c(S(=O)(=O)N3CCCCC3)c2)CC1` came in with a double positive events of 11.6% and a percent response (vesicle binding) of 418%. The molecule further returned a double positive events under setting [1] of 21%.
